# Data taken from the supplement of paper PMC8728848.
# Some of the results follow.
# B1: LysMD3 (Homo sapiens), Q7Z3D4 (protein)
# chain: MAGRHQNRSFPLPGVQSSGQVHAFGNCSDSDILEEDAEVYELRSRGKEKVRRSTSRDRLDDIIVLTKDIQEGDTLNAIALQYCCTVADIKRVNNLISDQDFFALRSIKIPVKKFSSLTETLCPPKGRQTSRHSSVQYSSEQQEILPANDSLAYSDSAGSFLKEVDRDIEQIVKCTDNKRENLNEVVSALTAQQMRFEPDNKNTQRKDPYYGADWGIG
# What was measured:
# Assay in all cases: glycan array binding signal (z-score within array); higher = stronger binding
# Details in all cases: glycan notation: IUPAC condensed, linker removed
# [1] = target: Glc(b1-4)Glc
# Procedure, shortened: (§1)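 From the Consortium for Functional Glycomics database, 3228 arrays were curated, keeping only those whose protein sequence was available. Binding is given as a within-array Z-score averaged across arrays sharing a protein sequence and across linkers. Negative Z-scores can be read as non-binding.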
# [2] = target: Glc(b1-6)Glc
# Procedure, shortened: as §1
# [3] = target: GlcA(b1-3)Gal
# Procedure, shortened: as §1
# [4] = target: GlcA(b1-3)GlcNAc
# Procedure, shortened: as §1
# [5] = target: GlcA(b1-6)Gal
# Procedure, shortened: as §1
# [6] = target: GlcA3S(b1-3)Gal(b1-4)GlcNAc(b1-2)Man
# Procedure, shortened: as §1
# [7] = target: GlcA3S(b1-3)Gal(b1-4)GlcNAc(b1-3)Gal(b1-4)Glc
# Procedure, shortened: as §1
# [8] = target: GlcNAc(a1-3)Gal(b1-4)GlcNAc
# Procedure, shortened: as §1
# [9] = target: GlcNAc(a1-4)Gal(b1-3)GlcNAc
# Procedure, shortened: as §1
# [10] = target: GlcNAc(a1-4)Gal(b1-4)GalNAc
# Procedure, shortened: as §1
# [11] = target: GlcNAc(a1-4)Gal(b1-4)GlcNAc
# Procedure, shortened: as §1
# [12] = target: GlcNAc(a1-4)Gal(b1-4)GlcNAc(b1-3)Gal(b1-4)Glc
# Procedure, shortened: as §1
# [13] = target: GlcNAc(a1-4)Gal(b1-4)GlcNAc(b1-3)Gal(b1-4)GlcNAc
# Procedure, shortened: as §1
# [14] = target: GlcNAc(a1-4)Gal(b1-4)GlcNAc(b1-3)Gal(b1-4)GlcNAc(b1-3)Gal(b1-4)GlcNAc
# Procedure, shortened: as §1
# [15] = target: GlcNAc(a1-4)Gal(b1-4)GlcNAc(b1-3)Gal(b1-4)[Fuc(a1-3)]GlcNAc(b1-3)Gal(b1-4)[Fuc(a1-3)]GlcNAc
# Procedure, shortened: as §1
# [16] = target: GlcNAc(a1-6)Gal(b1-4)GlcNAc
# Procedure, shortened: as §1
# [17] = target: GlcNAc(b1-2)Gal(b1-3)GalNAc
# Procedure, shortened: as §1
# [18] = target: GlcNAc(b1-2)Man(a1-3)[GlcNAc(b1-2)Man(a1-6)]Man(b1-4)GlcNAc(b1-4)GlcNAc
# Procedure, shortened: as §1
# [19] = target: GlcNAc(b1-2)Man(a1-3)[GlcNAc(b1-2)Man(a1-6)]Man(b1-4)GlcNAc(b1-4)[Fuc(a1-6)]GlcNAc
# Procedure, shortened: as §1
# [20] = target: GlcNAc(b1-2)Man(a1-3)[GlcNAc(b1-4)][GlcNAc(b1-2)Man(a1-6)]Man(b1-4)GlcNAc(b1-4)GlcNAc
# Procedure, shortened: as §1
# [21] = target: GlcNAc(b1-2)Man(a1-3)[GlcNAc(b1-4)][GlcNAc(b1-2)Man(a1-6)]Man(b1-4)GlcNAc(b1-4)[Fuc(a1-6)]GlcNAc
# Procedure, shortened: as §1
# [22] = target: GlcNAc(b1-2)[GlcNAc(b1-4)]Man(a1-3)[GlcNAc(b1-2)Man(a1-6)]Man(b1-4)GlcNAc(b1-4)GlcNAc
# Procedure, shortened: as §1
binder,measurement,setting,value
B1,glycan array binding signal (z-score),[1],0.404
same,glycan array binding signal (z-score),[2],-0.137
same,glycan array binding signal (z-score),[3],0.593
same,glycan array binding signal (z-score),[4],0.422
same,glycan array binding signal (z-score),[5],-0.138
same,glycan array binding signal (z-score),[6],0.105
same,glycan array binding signal (z-score),[7],-0.133
same,glycan array binding signal (z-score),[8],0.184
same,glycan array binding signal (z-score),[9],0.45
same,glycan array binding signal (z-score),[10],-0.452
same,glycan array binding signal (z-score),[11],-0.53
same,glycan array binding signal (z-score),[12],0.061
same,glycan array binding signal (z-score),[13],0.802
same,glycan array binding signal (z-score),[14],0.211
same,glycan array binding signal (z-score),[15],0.527
same,glycan array binding signal (z-score),[16],1.03
same,glycan array binding signal (z-score),[17],0.942
same,glycan array binding signal (z-score),[18],-0.021
same,glycan array binding signal (z-score),[19],0.662
same,glycan array binding signal (z-score),[20],0.189
same,glycan array binding signal (z-score),[21],0.374
same,glycan array binding signal (z-score),[22],-0.423

# Given with tabs: entries from further up.
binder	measurement	setting	value
B1	glycan array binding signal (z-score)	[12]	0.061
same	glycan array binding signal (z-score)	[13]	0.802
